Data published in patent publication US10253109 (BLOODWORKS, dated 2019).
Results are given in words; binding and its absence hold for the method and conditions named. Some results given as binding are weak or reduced against the parent protein; the word gives no strength.

Key:
[1] = biological target: T1, human Kell glycoprotein, Kp^a (KEL3) form (human) (UniProt P23276); assay: flow cytometry, indirect immunofluorescence on Kp^a/Kp^a RBCs
T1 sequence (looked up): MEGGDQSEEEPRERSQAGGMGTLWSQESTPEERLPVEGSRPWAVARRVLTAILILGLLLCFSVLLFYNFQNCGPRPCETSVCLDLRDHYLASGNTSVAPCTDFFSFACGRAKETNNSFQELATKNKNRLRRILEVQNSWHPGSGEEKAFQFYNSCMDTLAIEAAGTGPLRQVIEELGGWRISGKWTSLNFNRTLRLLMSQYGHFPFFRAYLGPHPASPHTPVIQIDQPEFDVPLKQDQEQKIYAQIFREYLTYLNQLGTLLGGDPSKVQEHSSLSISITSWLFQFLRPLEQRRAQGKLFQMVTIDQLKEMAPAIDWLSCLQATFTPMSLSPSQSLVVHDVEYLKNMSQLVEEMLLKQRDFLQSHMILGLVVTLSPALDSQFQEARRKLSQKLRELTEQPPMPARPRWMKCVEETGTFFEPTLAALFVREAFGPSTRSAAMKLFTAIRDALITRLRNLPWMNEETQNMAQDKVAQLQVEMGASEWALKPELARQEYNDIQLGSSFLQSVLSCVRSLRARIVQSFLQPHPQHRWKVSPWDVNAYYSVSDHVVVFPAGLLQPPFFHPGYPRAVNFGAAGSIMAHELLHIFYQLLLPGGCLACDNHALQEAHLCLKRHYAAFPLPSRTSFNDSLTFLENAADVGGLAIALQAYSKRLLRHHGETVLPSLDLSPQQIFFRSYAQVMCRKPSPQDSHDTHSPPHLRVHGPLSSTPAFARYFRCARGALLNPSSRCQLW

[2] = biological target: T2, human Kell glycoprotein, Js^a (KEL6) form (human) (UniProt P23276); assay: flow cytometry, indirect immunofluorescence on Js^a/Js^a RBCs
T2 sequence (looked up): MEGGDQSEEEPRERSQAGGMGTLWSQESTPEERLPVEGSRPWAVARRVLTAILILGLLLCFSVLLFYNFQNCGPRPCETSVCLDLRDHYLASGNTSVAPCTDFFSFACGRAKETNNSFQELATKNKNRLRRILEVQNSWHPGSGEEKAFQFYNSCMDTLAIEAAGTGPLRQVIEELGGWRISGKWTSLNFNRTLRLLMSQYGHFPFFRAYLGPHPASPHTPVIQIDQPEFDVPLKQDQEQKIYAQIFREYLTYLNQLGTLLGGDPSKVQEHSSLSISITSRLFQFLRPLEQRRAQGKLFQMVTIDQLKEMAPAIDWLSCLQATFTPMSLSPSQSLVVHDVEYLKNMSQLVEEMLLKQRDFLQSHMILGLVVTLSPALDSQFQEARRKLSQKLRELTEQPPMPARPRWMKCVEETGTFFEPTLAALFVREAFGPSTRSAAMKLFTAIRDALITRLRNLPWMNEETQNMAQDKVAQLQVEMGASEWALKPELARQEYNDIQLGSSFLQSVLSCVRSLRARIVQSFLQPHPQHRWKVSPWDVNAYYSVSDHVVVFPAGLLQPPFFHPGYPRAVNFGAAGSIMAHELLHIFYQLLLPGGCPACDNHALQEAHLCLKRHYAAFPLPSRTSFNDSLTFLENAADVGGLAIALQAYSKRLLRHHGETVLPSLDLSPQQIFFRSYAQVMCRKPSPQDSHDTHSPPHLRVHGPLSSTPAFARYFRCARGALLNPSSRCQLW

B1: monoclonal antibody PUMA 3 (antibody, V domains shown)
VH: QVQLKESGPGLLAPSQSLSITCTVSGFSLTSYGVYWVRQPPGKGLEWLGIIWGDGSTNYQSVLRSRLSITKDDSKSQVFLKLNSLQTDDTATYYCAKRGDYDVAYWGQGTLVTVSA
VL: DIVLTQSPASLAVSLGQRAIISCKASQTVSEVGTSLMHWYQQRPGQQPKLLIYRTSNLEAGVPTRFSGSGSRTDFTLNIHPVEEDDAATYYCQQSREFPWTFGGGTRLEIK
notes: Mouse monoclonal antibody from hybridoma
- binding [1]: binds
- binding [2]: binds
